# The list shows a part of the results. Further columns of the screen follow, without active or inactive calls. The list favours compounds with an active or inconclusive main result. The note in brackets gives the kind of curve behind each potency; many fits are weak.
# Test: qHTS Assay to Find Inhibitors of Chronic Active B-Cell Receptor Signaling
# Details: ABC-DLBCL IkBa-CBG/CBR reporter, luminescence ratio (green luciferase fused to IkBa over red control in TMD8 lymphoma cells), 4 h
# Summary of the method: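 Concentration-response series (up to 46 uM) were applied to TMD8 dual-reporter cells for 4 h at 37C with doxycycline. Green/red ratio, after filter-overlap correction, defined %Activity; red signal alone was normalised to basal cells and zero luminescence.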
# [1] = measured here: CBR red luminescence, cell number
# [2] = measured here: IkBa-CBG green luminescence
Compound,AC50 [1],AC50 [2]
O=C(C1CCCCC1)N1CCC(c2nc3ccccc3[nH]2)CC1,"0.00517 µM [rising, full curve, poor fit]",
Nc1ccccc1Sc1ccccc1[N+](=O)[O-],"2.06 µM [rising, full curve, poor fit]","23.1 µM [falling, partial curve, poor fit]"
O=C(NNC1=NS(=O)(=O)c2ccccc21)c1ccccc1,"0.282 µM [falling, full curve, poor fit]",
O=C(/C=C/c1ccc(F)cc1)NC(=S)Nc1ccccc1O,"14.1 µM [falling, partial curve]",
O=[N+]([O-])c1cccc(C(=S)N2CCN(c3ccc(F)cc3)CC2)c1,"35.5 µM [rising, single point]",
COc1ccc(C)cc1S(=O)(=O)N(CC(=O)N1CCOCC1)Cc1ccccc1,"6.51 µM [rising, partial curve, poor fit]",
C=CCNC(=S)Nc1ccc(OC(F)F)c(Cl)c1,"2.82 µM [rising, partial curve]",
COc1cccc(CNc2ncnc3ccc(-c4c(C)noc4C)cc23)c1,"0.82 µM [falling, full curve, poor fit]",
COc1ccccc1NS(=O)(=O)c1cc(NC(=O)c2cnccn2)ccc1N1CCOCC1,"0.1 µM [rising, full curve, poor fit]",
Cc1ccc(Cl)cc1NC(=O)CC1NCCNC1=O (stereo not given),"18.4 µM [rising, single point]",
Cc1nc(C)c(-c2ccc(SCc3ccc(Cl)cc3)nn2)s1,"28.2 µM [falling, single point]",
O=c1c2cn[nH]c2[nH]c(=S)n1-c1ccccc1F,"6.31 µM [rising, partial curve, poor fit]",
Cc1ccc(CS(=O)(=O)c2ncc(Cl)c(C(=O)Nc3nnc(C)s3)n2)cc1,"35.5 µM [falling, single point]",
O=C(CSC1=NS(=O)(=O)c2cc(Cl)ccc2N1)c1ccc(Cl)cc1,"0.651 µM [falling, full curve]",
O=C(CSc1nn(-c2ccc(Cl)cc2)c(=S)s1)N1CCN(C(=O)c2ccco2)CC1,"3.16 µM [falling, single point]",
COc1ccc(-c2nc(C(=O)NCCCN3CCOCC3)cc3c2[nH]c2ccccc23)cc1OC,"5.62 µM [falling, full curve]","5.62 µM [rising, full curve]"
CCNC(=O)NC(=O)COC(=O)c1ccccc1SCC(=O)NC(=O)NCC,"1.58 µM [falling, full curve]",
COc1ccc(OC)c(NC2=C(Cl)C(=O)N(Cc3ccccc3)C2=O)c1,"3.98 µM [falling, partial curve, poor fit]",
O=C1CCc2cc(S(=O)(=O)N3CCN(c4ccccc4F)CC3)ccc2N1,"29.1 µM [falling, single point]",
CNC(=S)Nc1cccc(S(=O)(=O)NC2=NCCC2)c1,"20 µM [falling, single point]",
c1ccc(-c2nnc(CN3CCN(c4ccccc4)CC3)o2)cc1,"35.5 µM [rising, single point]",

# Structures from the list above containing an NH in an aromatic ring, in the order listed:
Compound,AC50 [1],AC50 [2]
O=C(C1CCCCC1)N1CCC(c2nc3ccccc3[nH]2)CC1,"0.00517 µM [rising, full curve, poor fit]",
O=c1c2cn[nH]c2[nH]c(=S)n1-c1ccccc1F,"6.31 µM [rising, partial curve, poor fit]",
COc1ccc(-c2nc(C(=O)NCCCN3CCOCC3)cc3c2[nH]c2ccccc23)cc1OC,"5.62 µM [falling, full curve]","5.62 µM [rising, full curve]"

# Continuation:

Compound,AC50 [1],AC50 [2]
O=C(Nc1nccs1)c1ncc(Cl)c(Cl)c1Cl,"8.91 µM [falling, partial curve, poor fit]",
C[C@@H](NC(=O)c1nc[nH]c1C(=O)N1CCN(c2ccccc2)CC1)c1ccccc1,"0.82 µM [rising, full curve, poor fit]",
Cn1c(Oc2ccccc2NCc2cc(Br)ccc2O)cc(=O)n(C)c1=O,"29.1 µM [rising, single point]",
COc1cc(C(=O)NNC(=O)/C=C/c2ccccc2)cc(OC)c1OC,"14.6 µM [rising, single point]",
O=C(OCC(=O)N1CCCC1)c1ccc(OC(F)(F)F)cc1,"35.5 µM [rising, partial curve, poor fit]",
CC(=O)Nc1ccc(S(=O)(=O)N(C)c2ccc(OCC(=O)OCC(=O)N3CCCCC3)cc2)cc1,"25.1 µM [falling, single point]",
CCOC(=O)c1cc2sc(C)cc2n1CC(=O)N(CC)CC,"6.31 µM [falling, single point]",
Cc1c(OC(C)C(=O)NCCCN2CCOCC2)ccc2c3c(c(=O)oc12)CCC3 (stereo not given),"12.6 µM [rising, partial curve, poor fit]",
C=CCn1c(SCc2cc(=O)n3cc(C)ccc3n2)nnc1-c1ccc(F)cc1,"7.31 µM [rising, single point]",
COCCOC(=O)C1=C(C)NC2=C(C(=O)CC(c3cccs3)C2)C1c1ccsc1 (stereo not given),"11.2 µM [falling, partial curve, poor fit]",
CCCCCCc1nc(C(N)=O)c2[nH]c(=O)n(-c3ccccc3F)c2n1,"7.94 µM [rising, partial curve, poor fit]",
COc1ccc(-n2nccc2-c2nn(-c3cccc(OC)c3)c(=O)n(C)c2=O)cc1,"0.00517 µM [falling, full curve, poor fit]",
CCN1C(=NCCc2cccs2)N[C@@H](c2cccs2)C(C(=O)OC)=C1C,"7.08 µM [falling, partial curve]",
O=C(/C=C/c1ccc([N+](=O)[O-])cc1)Nc1cccc(S(=O)(=O)NC2=NCCCCC2)c1,"29.1 µM [falling, single point]",
Cc1cccc(Nc2nc(-c3ccc(F)cc3)cs2)n1,"0.158 µM [falling, partial curve, poor fit]",
CCOc1ccc(C2=Nc3ccccc3C(c3ccc(N4CCOCC4)cc3)=NN2)cc1,"5.62 µM [falling, full curve, poor fit]",
Oc1ccc(CN2CCCCC2)c2cccnc12,"4.61 µM [rising, partial curve, poor fit]",
COc1ccccc1CNc1cc(CSc2ccc(Cl)cc2)nc(C)n1,"29.1 µM [falling, single point]",
N#CC(=C1CCCC1)c1nc(-c2ccccc2)cs1,"1.58 µM [rising, partial curve]",
O=c1[nH]nc(SCCS(=O)(=O)c2ccc(F)cc2)n1-c1ccc2c(c1)OCCO2,"7.08 µM [falling, partial curve]",
CCOc1ccc(OCc2ccc(C(=O)OCc3ccccn3)o2)cc1,"7.94 µM [falling, partial curve]",

Compound,AC50 [1],AC50 [2]
Cc1cc(NS(=O)(=O)c2ccc(NC(=O)/C=C/c3ccco3)cc2)nc(C)n1,"14.1 µM [falling, single point]",
Cc1ccc2nc(-c3ccc(N)cc3)sc2c1,"4.47 µM [falling, partial curve, poor fit]",
O=C(O)c1ccc(N/N=C/c2ccc(-c3ccccc3)cc2)cc1,"1.12 µM [falling, full curve]",
O=C(Nc1ccc(Cc2ccncc2)cc1)C1CCC(N2C(=O)C3C4C=CC(C5CC45)C3C2=O)CC1 (stereo not given),"0.731 µM [rising, full curve, poor fit]",
Cc1cc(O)ccc1N/C=C(\C#N)c1nc2ccccc2o1,"0.82 µM [rising, full curve, poor fit]",
O=C(O)c1ccc(NC(=O)c2cn(-c3ccccc3)nc2-c2ccc(Br)cc2)cc1,"14.1 µM [falling, partial curve, poor fit]",
CCN(Cc1ccccc1)C(c1cccs1)c1nnnn1C1CCCCC1 (stereo not given),"0.206 µM [rising, full curve, poor fit]",
O=C(CCCCn1c(=O)c2ccccc2n(CC(=O)Nc2ccc(F)cc2)c1=O)NCc1ccco1,"18.4 µM [falling, partial curve, poor fit]",
Cc1c(-c2nc(N)nc(Nc3ccccc3F)n2)oc2ccccc12,"5.17 µM [falling, partial curve, poor fit]",
O=C(c1cc2cc(Cl)ccc2[nH]1)N1CCc2ccccc2C1,"0.398 µM [rising, full curve]",
N/C(=N\OC(=O)COc1ccccc1Cl)c1ccccn1,"0.58 µM [rising, full curve, poor fit]",
CC(=O)c1ccc(C(=O)N2CCc3c([nH]c4ccccc34)C2c2cccc(C)n2)s1 (stereo not given),"25.1 µM [falling, single point]",
CC(=O)Nc1ccc(Nc2cc(C)nc(Nc3ccc(NC(C)=O)cc3)n2)cc1,"25.9 µM [falling, single point]",
COc1ccc(C2Nc3ccccc3C(=O)N2Cc2ccco2)cc1COc1ccccc1F (stereo not given),"7.31 µM [falling, partial curve, poor fit]",
Cc1ccc(N2C(=O)[C@@H]3[C@H](C2=O)[C@H]2C=CC=NN2[C@@H]3C(=O)Nc2ccc(Cl)cc2)cc1,"10 µM [falling, partial curve]",
Cc1occc1C(=O)N1CCN(Cc2ccccc2)CC1,"6.51 µM [falling, single point]",
CCOc1ccc(N2CC(C(=O)OCC(=O)c3ccc(OC)cc3)CC2=O)cc1 (stereo not given),"0.1 µM [rising, full curve, poor fit]",
COc1ccc([N+](=O)[O-])cc1NC(=O)/C=C/C(=O)O,"32.6 µM [falling, partial curve, poor fit]",
O=C(NCc1cccs1)c1cccc(Nc2nc3ccc(Br)cc3[nH]2)c1,"18.4 µM [falling, single point]",
CCOC(=O)c1c(O)c(O)c(C(=O)OCC)n1-c1ccccc1,"22.4 µM [falling, single point]",
Cc1ccccc1-n1nc(C)c2cc(C(=O)NC3CC3)sc21,"0.411 µM [rising, full curve]",
